Chains of the proteins cited; added tags and fusions are not shown.
UniProt P37288, whole entry: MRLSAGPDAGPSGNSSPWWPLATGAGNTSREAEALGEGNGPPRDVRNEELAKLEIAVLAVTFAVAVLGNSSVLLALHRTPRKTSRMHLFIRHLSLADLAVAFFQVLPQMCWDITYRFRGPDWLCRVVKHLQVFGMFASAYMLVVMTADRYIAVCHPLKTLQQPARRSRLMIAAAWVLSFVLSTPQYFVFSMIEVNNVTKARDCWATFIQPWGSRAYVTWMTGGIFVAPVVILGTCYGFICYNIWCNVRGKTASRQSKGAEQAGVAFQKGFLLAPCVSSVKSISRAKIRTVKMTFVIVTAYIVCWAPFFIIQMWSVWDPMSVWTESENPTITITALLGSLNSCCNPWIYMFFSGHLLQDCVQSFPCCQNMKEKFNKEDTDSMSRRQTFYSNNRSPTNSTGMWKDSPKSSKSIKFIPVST
UniProt P30559, whole entry: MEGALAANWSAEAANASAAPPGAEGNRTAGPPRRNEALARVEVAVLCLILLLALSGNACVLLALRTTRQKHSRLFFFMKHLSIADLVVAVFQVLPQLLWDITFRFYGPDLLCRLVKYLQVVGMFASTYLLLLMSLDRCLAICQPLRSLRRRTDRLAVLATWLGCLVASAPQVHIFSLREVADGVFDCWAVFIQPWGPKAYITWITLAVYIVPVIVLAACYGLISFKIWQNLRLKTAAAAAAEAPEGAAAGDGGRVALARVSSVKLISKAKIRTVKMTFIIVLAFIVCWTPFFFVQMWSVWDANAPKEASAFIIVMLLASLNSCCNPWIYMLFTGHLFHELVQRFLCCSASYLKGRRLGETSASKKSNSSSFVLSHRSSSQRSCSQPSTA

According to patent US11186577B2, “Vasopressin receptor antagonists and products and methods related thereto” (BlackThorn Therapeutics, Inc., priority 2017, dated 2021):

Key:
[1] = target: human Arginine Vasopressin Receptor 1a (AVPR1a) (Homo sapiens (Human), UniProt P37288); assay: Vasopressin V1A receptor antagonist assay (AVP-evoked calcium, FLIPR, CHO-AVPR1a cells); format: cell-based; settings: read-out: V1a IC50
[2] = target: human Oxytocin Receptor (hOTR) (Homo sapiens (Human), UniProt P30559); assay: Oxytocin receptor antagonist assay (oxytocin-evoked calcium, FLIPR, CHEM-1-hOTR cells); settings: read-out: OT IC50
MDR1-MDCK cells = assay: MDR1-MDCK effective efflux assay (Transwell, 10 μM, 1 hour), MDR1-MDCK cells; settings: apical to basolateral (A>B)
[3] = test system: wild-type (WT) MDCK cells; assay: MDR1-MDCK effective efflux assay (Transwell, 10 μM, 1 hour), wild-type MDCK cells; settings: apical to basolateral (A>B)

With `CC(C)OC(=O)N1Cc2cc(Cl)ccc2-n2c(nnc2C2CC3(C2)CN(c2ccccn2)C3)C1` the IC50 [1] was < 100 nM, the IC50 [2] was 100 to 500 nM and the “Papp AB MDR1” value (MDR1-MDCK cells) was “++++ ((++++) denotes >20 (10^-6 cm/sec))”. The “Papp AB WT” value [3] was “++++ ((++++) denotes >20 (10^-6 cm/sec))”.

The match of structure and compound is tentative.
